Laboratory results reported in patent publication US20260109757A1.
These are yes or no findings as the source states them, for the method shown. Some results given as binding are weak or reduced against the parent protein; the word gives no strength.

Protein sequences, listed by entry. Tags and fused reporters are not part of them. Lines headed by an entry give the natural chain unless they say otherwise; changes in a name come on top.
UniProt P01137: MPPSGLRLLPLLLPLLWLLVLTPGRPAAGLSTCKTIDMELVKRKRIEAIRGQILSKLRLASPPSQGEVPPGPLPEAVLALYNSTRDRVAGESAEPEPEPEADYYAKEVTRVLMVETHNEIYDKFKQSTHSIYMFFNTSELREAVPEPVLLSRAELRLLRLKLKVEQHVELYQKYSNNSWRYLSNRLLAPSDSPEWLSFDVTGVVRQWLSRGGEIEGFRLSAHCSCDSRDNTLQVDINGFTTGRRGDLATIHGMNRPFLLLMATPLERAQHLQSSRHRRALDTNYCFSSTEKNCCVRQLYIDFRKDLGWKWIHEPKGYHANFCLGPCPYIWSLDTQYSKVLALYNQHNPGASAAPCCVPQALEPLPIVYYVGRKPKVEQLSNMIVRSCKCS
UniProt Q14392: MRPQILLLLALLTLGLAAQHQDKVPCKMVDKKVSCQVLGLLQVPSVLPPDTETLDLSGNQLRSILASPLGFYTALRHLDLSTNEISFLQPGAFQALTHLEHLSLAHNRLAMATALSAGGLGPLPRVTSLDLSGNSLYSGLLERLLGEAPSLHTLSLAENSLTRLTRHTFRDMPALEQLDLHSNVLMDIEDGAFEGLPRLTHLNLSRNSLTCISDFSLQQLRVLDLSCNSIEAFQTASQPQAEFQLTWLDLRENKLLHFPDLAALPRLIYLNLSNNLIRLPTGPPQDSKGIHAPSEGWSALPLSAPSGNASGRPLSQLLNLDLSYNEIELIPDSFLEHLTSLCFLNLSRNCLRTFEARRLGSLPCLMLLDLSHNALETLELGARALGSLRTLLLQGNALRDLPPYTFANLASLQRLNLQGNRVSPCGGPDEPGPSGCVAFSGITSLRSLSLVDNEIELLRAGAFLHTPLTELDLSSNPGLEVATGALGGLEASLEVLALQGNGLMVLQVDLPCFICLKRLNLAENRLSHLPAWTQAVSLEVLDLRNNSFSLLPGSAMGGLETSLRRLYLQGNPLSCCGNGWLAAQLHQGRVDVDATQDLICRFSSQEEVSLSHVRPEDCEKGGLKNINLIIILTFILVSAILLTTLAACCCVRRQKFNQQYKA

Tests used:
[1] = biological target: proTGF-β1 (Homo sapiens (Human)) (UniProt P01137); test: flow cytometry of stably co-transfected 300.19 cells stained with fluorescent antibodies directed to the expressed proteins
[2] = biological target: TGF-β1 LAP (Homo sapiens (Human)) (UniProt P01137); test: as above
[3] = biological target: proTGF-β1 (Homo sapiens (Human)) (UniProt P01137); test: co-expression, Ni-NTA purification through the His tag, SDS-PAGE under reducing or non-reducing conditions

| binding [1] | binding [2] | binding [3] | Substance |
| --- | --- | --- | --- |
| binds | binds | – | (membrane-bound) GARP (from UniProt Q14392 20-662) (receptor) |
| – | – | binds | His-tagged sGARP (from UniProt Q14392 20-627) (receptor) |
